Results are given in words; binding and its absence hold for the method and conditions named. Binding seen in cells or lysates may run through a third protein. Here binding means that the protein was enriched with, or labelled near, the bait; the list need not be complete. For part of these data: Where a sequence is shown, tags or fusion partners need not be part of it.
T1: 3xFLAG-BirA*-NUP37 (UniProt Q8NFH4)
T1 sequence: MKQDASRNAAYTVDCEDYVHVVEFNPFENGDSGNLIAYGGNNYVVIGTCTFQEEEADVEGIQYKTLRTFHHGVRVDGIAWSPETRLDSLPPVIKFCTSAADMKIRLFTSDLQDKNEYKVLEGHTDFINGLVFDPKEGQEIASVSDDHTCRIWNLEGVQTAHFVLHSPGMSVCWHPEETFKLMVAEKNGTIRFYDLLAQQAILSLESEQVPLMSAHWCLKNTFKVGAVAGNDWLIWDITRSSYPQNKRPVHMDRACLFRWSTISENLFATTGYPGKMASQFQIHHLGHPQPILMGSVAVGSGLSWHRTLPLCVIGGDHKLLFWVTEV

Protein sequences, listed by entry. Tags and fused reporters are not part of them.
UniProt P55060: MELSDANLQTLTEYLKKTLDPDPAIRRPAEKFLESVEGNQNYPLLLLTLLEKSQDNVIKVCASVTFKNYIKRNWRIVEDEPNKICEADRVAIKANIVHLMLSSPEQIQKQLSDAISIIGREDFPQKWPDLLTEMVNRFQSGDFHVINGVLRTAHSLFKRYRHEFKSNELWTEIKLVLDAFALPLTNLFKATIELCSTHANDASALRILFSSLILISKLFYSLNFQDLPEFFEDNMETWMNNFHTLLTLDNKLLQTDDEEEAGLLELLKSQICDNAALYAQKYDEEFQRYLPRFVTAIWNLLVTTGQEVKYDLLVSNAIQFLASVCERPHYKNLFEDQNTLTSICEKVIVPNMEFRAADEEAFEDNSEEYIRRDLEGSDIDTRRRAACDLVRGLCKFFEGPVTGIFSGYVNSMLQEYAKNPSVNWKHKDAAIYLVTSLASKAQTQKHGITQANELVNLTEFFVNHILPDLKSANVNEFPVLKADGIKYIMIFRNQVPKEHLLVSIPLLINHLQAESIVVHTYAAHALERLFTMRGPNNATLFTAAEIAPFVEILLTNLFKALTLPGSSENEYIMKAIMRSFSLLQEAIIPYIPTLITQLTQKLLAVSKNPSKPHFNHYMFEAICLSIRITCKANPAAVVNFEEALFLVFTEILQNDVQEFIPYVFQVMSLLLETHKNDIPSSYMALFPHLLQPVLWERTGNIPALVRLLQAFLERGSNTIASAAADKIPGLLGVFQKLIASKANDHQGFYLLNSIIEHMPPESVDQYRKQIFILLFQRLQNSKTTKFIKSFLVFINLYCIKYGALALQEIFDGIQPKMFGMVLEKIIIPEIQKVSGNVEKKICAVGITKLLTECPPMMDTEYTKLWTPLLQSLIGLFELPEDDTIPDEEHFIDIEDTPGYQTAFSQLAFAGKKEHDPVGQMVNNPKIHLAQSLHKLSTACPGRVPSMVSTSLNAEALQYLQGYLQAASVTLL
UniProt Q96B97: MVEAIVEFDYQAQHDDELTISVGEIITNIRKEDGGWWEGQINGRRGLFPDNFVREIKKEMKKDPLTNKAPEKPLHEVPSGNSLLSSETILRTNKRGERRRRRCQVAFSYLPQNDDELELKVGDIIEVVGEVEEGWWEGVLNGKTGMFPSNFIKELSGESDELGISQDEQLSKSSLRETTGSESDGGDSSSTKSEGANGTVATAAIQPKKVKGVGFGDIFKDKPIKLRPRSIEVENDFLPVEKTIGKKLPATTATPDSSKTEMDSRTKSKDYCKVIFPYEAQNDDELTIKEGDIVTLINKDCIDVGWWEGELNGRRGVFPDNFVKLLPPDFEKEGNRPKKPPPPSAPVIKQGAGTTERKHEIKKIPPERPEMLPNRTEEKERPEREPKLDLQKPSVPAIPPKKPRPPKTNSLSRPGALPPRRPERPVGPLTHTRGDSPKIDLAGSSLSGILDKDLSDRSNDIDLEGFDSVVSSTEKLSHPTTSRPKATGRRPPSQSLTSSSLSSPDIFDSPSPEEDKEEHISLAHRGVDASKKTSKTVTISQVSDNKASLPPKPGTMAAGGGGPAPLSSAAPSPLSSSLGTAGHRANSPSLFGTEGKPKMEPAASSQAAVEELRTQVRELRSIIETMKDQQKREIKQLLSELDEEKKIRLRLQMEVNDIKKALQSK

B1: NUP160 (protein, UniProt Q12769 1-1436)
chain: MLHLSAAPPAPPPEVTATARPCLCSVGRRGDGGKMAAAGALERSFVELSGAERERPRHFREFTVCSIGTANAVAGAVKYSESAGGFYYVESGKLFSVTRNRFIHWKTSGDTLELMEESLDINLLNNAIRLKFQNCSVLPGGVYVSETQNRVIILMLTNQTVHRLLLPHPSRMYRSELVVDSQMQSIFTDIGKVDFTDPCNYQLIPAVPGISPNSTASTAWLSSDGEALFALPCASGGIFVLKLPPYDIPGMVSVVELKQSSVMQRLLTGWMPTAIRGDQSPSDRPLSLAVHCVEHDAFIFALCQDHKLRMWSYKEQMCLMVADMLEYVPVKKDLRLTAGTGHKLRLAYSPTMGLYLGIYMHAPKRGQFCIFQLVSTESNRYSLDHISSLFTSQETLIDFALTSTDIWALWHDAENQTVVKYINFEHNVAGQWNPVFMQPLPEEEIVIRDDQDPREMYLQSLFTPGQFTNEALCKALQIFCRGTERNLDLSWSELKKEVTLAVENELQGSVTEYEFSQEEFRNLQQEFWCKFYACCLQYQEALSHPLALHLNPHTNMVCLLKKGYLSFLIPSSLVDHLYLLPYENLLTEDETTISDDVDIARDVICLIKCLRLIEESVTVDMSVIMEMSCYNLQSPEKAAEQILEDMITIDVENVMEDICSKLQEIRNPIHAIGLLIREMDYETEVEMEKGFNPAQPLNIRMNLTQLYGSNTAGYIVCRGVHKIASTRFLICRDLLILQQLLMRLGDAVIWGTGQLFQAQQDLLHRTAPLLLSYYLIKWGSECLATDVPLDTLESNLQHLSVLELTDSGALMANRFVSSPQTIVELFFQEVARKHIISHLFSQPKAPLSQTGLNWPEMITAITSYLLQLLWPSNPGCLFLECLMGNCQYVQLQDYIQLLHPWCQVNVGSCRFMLGRCYLVTGEGQKALECFCQAASEVGKEEFLDRLIRSEDGEIVSTPRLQYYDKVLRLLDVIGLPELVIQLATSAITEAGDDWKSQATLRTCIFKHHLDLGHNSQAYEALTQIPDSSRQLDCLRQLVVVLCERSQLQDLVEFPYVNLHNEVVGIIESRARAVDLMTHNYYELLYAFHIYRHNYRKAGTVMFEYGMRLGREVRTLRGLEKQGNCYLAALNCLRLIRPEYAWIVQPVSGAVYDRPGASPKRNHDGECTAAPTNRQIEILELEDLEKECSLARIRLTLAQHDPSAVAVAGSSSAEEMVTLLVQAGLFDTAISLCQTFKLPLTPVFEGLAFKCIKLQFGGEAAQAEAWAWLAANQLSSVITTKESSATDEAWRLLSTYLERYKVQNNLYHHCVINKLLSHGVPLPNWLINSYKKVDAAELLRLYLNYDLLEEAVDLVSEYVDAVLGKGHQYFGIEFPLSATAPMVWLPYSSIDQLLQALGENSANSHNIALSQKILDKLEDYQQKVDKATRDLLYRRTL

Experiments:
[1] = biological target: 3xFLAG-BirA*-CSE1L (human) (UniProt P55060); assay: proximity labelling; B2B1 overlay cultures expressing inducible BirA*-CSE1L or BirA*-NUP37; 0.5 µM AP21967 24 h, then 50 µM biotin 24 h; RIPA lysis; two-step purification (anti-biotin agarose, then streptavidin beads), SDS-PAGE, mass spectrometry
3xFLAG-BirA*-NUP37 [2] = biological target: T1, 3xFLAG-BirA*-NUP37; assay: as above
3xFLAG-BirA*-NUP37 [3] = biological target: T1, 3xFLAG-BirA*-NUP37; assay: proximity labelling; B2B1 cells expressing inducible FLAG-tagged BirA*-CSE1L or BirA*-NUP37, ±0.5 µM AP for 24 h before biotinylation for 24 h; anti-biotin immunoprecipitates immunoblotted for the targets; independent samples, n = 3

Molecule	binding [1]	binding (3xFLAG-BirA*-NUP37 [2])	binding (3xFLAG-BirA*-NUP37 [3])
EGFR endocytic-trafficking adaptor SH3KBP1 (from UniProt Q96B97 1-665)	binds	binds	
B1			binds

Source: article PMC10102026
